Experimental data reported in US9458187B2, “Methods for treatment of inflammatory conditions using S-[4-(3-fleuro-3-methylbutyryloxy)but-2-ynyl]6α, 9α-difluoro-17α-(furan-2-yl) carbonyloxy-11β-hydroxy-16α-methyl-3-oxoandrosta-1,4-diene-17β-carbothioate” (Sun Pharma Advanced Research Company Limited, priority 2013, dated 2016).

What was measured:
[1] = test system: Sephadex-induced lung edema; assay: Sephadex-induced lung edema; assay type: in vivo, SD rats; conditions: i.t.
Description: Sephadex® G-200 was prepared in sterile saline (10 mg/ml) and allowed to swell for at least 3 days at room temperature. Test compounds were administered intratracheally at 24 hrs and 2 hrs prior to intratracheal administration of Sephadex® (5 mg/kg) under light ether anesthesia. Vehicle control animals were administered vehicle instead of Sephadex®. At 24 hr after Sephadex® instillation, lung and thymus were excised from individual animals and weighed. Wet weights of lungs and thymus were corrected for 100 g of initial body weight. The percentage increase in lung weight caused by Sephadex® and its inhibitions by the compounds, were calculated. The percentage inhibitions of thymus compared to vehicle control group were also calculated

cotton pellet granuloma = assay: Cotton pellet granuloma test; assay type: in vivo, SD rats; conditions: 100 mcg/pellet
Description: SD rats were used for assessing anti-inflammatory activity of test compound using cotton pellet granuloma method. Sterilized cotton pellets weighing 20 mg were prepared. Test compounds were dissolved in acetone so as to get the required quantity for each cotton pellet in 500 μl. Different pellets were impregnated with 500 μl of acetone to contain required quantity of test compounds and allowed to dry. Vehicle control pellets were impregnated with 500 μl acetone.
Rats were made into different groups. Two cotton pellets were surgically implanted into the scapular region of each rat. On sixth day of such implantation, pellets along with granuloma were taken out. Thymus gland was also separated from each animal and weighed. The pellets with granuloma were dried for 20 hrs at 60° C. and weighed. Mean weights of dry granuloma and thymus, body weight gain/100 g body weights were calculated.

Row | Structure (SMILES) | Safety index ED50 Thymus involution/ED50 Lung edema [1] | Ratio A/B (measure of safety index) (cotton pellet granuloma)
1 | CCC(=O)O[C@]1(C(=O)SCF)[C@H](C)C[C@H]2[C@@H]3C[C@H](F)C4=CC(=O)C=C[C@]4(C)[C@@]3(F)[C@@H](O)C[C@@]21C [Fluticasone propionate] | 4.19 | 0.89
2 | CC(C)C(=O)OCC(=O)[C@@]12O[C@H](C3CCCCC3)O[C@@H]1C[C@H]1[C@@H]3CCC4=CC(=O)C=C[C@]4(C)[C@H]3[C@@H](O)C[C@@]12C [Ciclesonide] | 8.07 | 4.18
3 | C[C@@H]1CC2C3C[C@H](F)C4=CC(=O)C=C[C@]4(C)[C@@]3(F)[C@@H](O)C[C@]2(C)[C@@]1(OC(=O)c1ccco1)C(=O)SCC#CCOC(=O)CC(C)(C)F (stereo partly drawn) [Formula I, S-[4-(3-Fluoro-3-methylbutyryloxy)but-2-ynyl]6α,9α-difluoro-17α-(furan-2-yl)carbonyloxy-11β-hydroxy-16α-methyl-3-oxoandrosta-1,4-diene-17β-carbothioate] | 92.55 | 12.44
